Source: publication PMC5052720
No constants are given. Whether binding was seen depends on the method and setting.

Biological target: MjGATase_N109S (Methanocaldococcus jannaschii) (UniProt Q58970)
Assay: SEC; analytical Superdex 200 column (1 x 30 cm), 0.5 ml/min, no GdmCl; calibrated with molecular weight standards (12.4-200 kDa); both purified

binding: no binding
B1: MjGATase_N109S (enzyme, UniProt Q58970 1-188)
chain: MIVILDNGGQYVHRIHRSLKYIGVSSKIVPNTTPLEEIESNKEVKGIILSGGPDIEKAKNCIDIALNAKLPILGICLGHQLIALAYGGEVGRAEAEEYALTKVYVDKESDLFKNVPREFNAWASHKDEVKKVPEGFEILAHSDICQVEAMKHKTKPIYGVQFHPEVAHTEYGNEILKNFCKVCGYKFE
